Laboratory results reported in article PMC4686425.

By UniProt entry, the sequences of proteins in these tests, tags left out.
UniProt P38873: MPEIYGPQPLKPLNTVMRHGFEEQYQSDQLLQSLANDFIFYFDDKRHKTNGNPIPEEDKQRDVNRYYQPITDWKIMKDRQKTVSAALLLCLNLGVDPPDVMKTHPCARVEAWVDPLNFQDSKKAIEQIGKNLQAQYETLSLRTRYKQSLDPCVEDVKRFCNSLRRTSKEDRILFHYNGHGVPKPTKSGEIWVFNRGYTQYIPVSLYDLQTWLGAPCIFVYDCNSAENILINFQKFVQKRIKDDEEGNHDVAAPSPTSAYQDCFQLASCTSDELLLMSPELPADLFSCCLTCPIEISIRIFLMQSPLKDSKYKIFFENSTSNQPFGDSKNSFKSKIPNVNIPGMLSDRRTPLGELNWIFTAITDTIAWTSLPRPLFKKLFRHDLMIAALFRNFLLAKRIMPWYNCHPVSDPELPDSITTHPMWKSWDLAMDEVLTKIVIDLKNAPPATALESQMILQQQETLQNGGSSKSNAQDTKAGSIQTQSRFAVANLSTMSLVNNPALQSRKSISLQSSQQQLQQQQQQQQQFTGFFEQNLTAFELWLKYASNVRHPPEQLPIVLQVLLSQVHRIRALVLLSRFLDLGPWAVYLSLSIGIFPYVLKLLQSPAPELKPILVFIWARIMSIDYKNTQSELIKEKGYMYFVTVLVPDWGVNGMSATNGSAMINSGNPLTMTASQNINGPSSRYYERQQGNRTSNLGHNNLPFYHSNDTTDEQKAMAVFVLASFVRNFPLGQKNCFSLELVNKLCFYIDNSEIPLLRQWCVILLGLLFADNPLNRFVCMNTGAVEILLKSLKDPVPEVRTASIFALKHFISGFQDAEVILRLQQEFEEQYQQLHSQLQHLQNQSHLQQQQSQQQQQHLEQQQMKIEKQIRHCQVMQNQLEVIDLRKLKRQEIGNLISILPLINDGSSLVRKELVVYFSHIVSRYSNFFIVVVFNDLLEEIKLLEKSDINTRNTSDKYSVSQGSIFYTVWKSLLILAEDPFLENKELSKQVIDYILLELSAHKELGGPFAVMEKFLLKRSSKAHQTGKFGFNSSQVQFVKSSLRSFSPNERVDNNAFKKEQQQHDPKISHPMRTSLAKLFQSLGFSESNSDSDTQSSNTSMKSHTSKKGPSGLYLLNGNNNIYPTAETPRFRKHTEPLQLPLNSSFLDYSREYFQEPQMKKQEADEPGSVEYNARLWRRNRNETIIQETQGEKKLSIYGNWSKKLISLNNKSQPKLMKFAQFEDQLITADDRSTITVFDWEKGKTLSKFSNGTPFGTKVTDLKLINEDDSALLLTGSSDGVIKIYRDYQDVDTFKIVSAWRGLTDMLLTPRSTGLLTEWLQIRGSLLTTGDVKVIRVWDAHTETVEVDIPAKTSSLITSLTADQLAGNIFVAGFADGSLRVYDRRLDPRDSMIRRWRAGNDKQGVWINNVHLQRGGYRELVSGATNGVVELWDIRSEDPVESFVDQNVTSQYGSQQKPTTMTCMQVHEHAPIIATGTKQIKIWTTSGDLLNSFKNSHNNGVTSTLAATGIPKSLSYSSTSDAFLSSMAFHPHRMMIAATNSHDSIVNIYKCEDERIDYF
UniProt P35169: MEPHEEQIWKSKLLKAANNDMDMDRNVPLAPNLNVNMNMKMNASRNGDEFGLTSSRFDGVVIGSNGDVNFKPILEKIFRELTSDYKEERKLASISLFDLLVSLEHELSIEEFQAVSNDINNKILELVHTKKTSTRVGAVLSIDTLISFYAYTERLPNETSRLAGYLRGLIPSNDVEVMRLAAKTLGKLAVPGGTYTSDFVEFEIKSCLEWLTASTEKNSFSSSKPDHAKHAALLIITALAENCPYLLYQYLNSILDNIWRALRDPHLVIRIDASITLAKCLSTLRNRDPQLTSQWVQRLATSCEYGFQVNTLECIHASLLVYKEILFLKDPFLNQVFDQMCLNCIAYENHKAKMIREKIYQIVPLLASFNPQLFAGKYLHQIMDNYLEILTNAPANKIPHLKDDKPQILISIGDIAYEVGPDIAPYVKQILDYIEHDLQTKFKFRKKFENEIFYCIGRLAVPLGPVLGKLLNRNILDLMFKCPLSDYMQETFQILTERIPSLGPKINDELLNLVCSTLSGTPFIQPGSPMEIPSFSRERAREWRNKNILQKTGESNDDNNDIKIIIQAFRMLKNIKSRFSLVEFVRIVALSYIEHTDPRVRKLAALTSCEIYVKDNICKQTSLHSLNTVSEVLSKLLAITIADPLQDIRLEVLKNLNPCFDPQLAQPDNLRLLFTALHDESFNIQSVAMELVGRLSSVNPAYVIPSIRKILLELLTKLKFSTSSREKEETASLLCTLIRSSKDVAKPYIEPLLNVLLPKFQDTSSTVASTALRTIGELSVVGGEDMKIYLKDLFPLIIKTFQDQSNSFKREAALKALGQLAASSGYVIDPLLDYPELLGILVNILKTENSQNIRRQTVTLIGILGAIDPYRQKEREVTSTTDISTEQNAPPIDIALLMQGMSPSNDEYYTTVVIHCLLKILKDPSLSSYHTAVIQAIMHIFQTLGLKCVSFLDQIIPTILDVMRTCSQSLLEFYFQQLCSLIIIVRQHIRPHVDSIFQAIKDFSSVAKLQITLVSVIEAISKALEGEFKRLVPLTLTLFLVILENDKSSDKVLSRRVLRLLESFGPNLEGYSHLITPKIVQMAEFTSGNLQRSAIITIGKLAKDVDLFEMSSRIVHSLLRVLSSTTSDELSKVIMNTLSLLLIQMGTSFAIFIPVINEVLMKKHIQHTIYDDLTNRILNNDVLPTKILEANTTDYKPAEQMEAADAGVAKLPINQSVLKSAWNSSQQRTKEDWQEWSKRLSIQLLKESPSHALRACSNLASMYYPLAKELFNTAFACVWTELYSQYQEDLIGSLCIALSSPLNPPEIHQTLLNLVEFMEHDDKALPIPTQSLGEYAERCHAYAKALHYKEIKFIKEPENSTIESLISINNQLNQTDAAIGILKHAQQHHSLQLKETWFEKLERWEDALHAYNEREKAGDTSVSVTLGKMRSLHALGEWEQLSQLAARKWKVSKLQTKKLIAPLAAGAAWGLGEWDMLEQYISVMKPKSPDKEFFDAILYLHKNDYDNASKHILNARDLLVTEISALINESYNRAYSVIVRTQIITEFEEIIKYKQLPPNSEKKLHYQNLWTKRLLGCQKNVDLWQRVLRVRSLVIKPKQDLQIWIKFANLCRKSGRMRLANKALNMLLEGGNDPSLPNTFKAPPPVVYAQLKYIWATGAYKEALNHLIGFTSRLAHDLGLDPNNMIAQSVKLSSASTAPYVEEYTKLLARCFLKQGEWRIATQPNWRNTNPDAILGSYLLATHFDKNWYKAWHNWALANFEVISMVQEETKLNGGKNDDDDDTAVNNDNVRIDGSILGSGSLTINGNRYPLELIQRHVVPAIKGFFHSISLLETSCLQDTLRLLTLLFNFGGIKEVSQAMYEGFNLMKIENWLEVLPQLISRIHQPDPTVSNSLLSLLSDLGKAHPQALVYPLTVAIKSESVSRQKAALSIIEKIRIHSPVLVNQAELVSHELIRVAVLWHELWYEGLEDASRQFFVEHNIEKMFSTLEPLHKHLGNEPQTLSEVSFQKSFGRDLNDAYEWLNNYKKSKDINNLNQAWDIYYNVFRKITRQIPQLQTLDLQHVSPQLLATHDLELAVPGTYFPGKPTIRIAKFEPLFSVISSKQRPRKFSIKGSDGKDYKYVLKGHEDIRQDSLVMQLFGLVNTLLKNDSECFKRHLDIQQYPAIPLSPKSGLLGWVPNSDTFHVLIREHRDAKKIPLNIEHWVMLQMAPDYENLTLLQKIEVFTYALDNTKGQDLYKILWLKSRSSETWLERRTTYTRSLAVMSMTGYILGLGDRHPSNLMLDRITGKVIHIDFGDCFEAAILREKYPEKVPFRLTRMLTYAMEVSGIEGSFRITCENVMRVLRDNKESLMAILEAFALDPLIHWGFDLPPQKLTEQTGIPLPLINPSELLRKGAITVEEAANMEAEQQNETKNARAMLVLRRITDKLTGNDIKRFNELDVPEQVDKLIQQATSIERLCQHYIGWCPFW

Biological target: Kog1-3xFlag (S. cerevisiae) (UniProt P38873)
Test: affinity purification with mass spectrometry; anti-Flag antibody on protein G Dynal beads, clarified lysate of yeast expressing Kog1-3xFlag, 30 min at 4°C; lysis buffer 50 mM HEPES pH 7.1, 150 mM KCl, 0.5% Tween 20; SDS gel stained with colloidal blue, bands excised for mass spectrometry; cells in SD medium, 5 min glucose starvation or 5 min 0.4 M KCl

- binding: binds
Substance: Tor1 (from UniProt P35169 1-2470)

No constants are given. Whether binding was seen depends on the method and setting. In cells and extracts the contact can be indirect. Here binding means that the protein was enriched with, or labelled near, the bait; the list need not be complete.
